Among the data in publication PMC9333443, “Structural insights into Pot1-ssDNA, Pot1-Tpz1 and Tpz1-Ccq1 Interactions within fission yeast shelterin complex” (PLoS Genetics, 2022) are binding values, retold here.

The assay deals with Ccq1 full length, two-hybrid fusion (S. pombe) (UniProt Q10432). Briefly: two-hybrid; L40 strain with pBTM116 and pACT2 fusion plasmids; liquid β-galactosidase assay, normalised to the wild-type interaction set to 100.

Results are given in words; binding and its absence hold for the method and conditions named. Some results given as binding are weak or reduced against the parent protein; the word gives no strength. Where a sequence is shown, tags or fusion partners need not be part of it.

B1: Ccq1 full length, two-hybrid fusion (protein, UniProt Q10432 1-735)
chain: MSEINDFTNSIIINESDTKYEVYSEVNSSNRWIAKEDCPSPLEDVWLLKLAGHKRKLEEPLSCMRNEEPASKQREIEKFLRTDLDHSENDFLTQEVDEFPSTQQLFPIPLQNDTAFDSSEESITKSSKSSFSVLDIGLPMSALQRKMMHRLVQYFAFCIDHFCTGPSDSRIQEKIRLFIQSAHNIAKHPSLYDTEVRNPSAAESTNSHVSLDASNFSSYAENSSKFLFLQELFKNLSPSYSKTFFLFISNQFLANTLTQWLKSQNIDAELWAEEDAKTSQHPAIWICVSKKAPSASHFLQSCPDLSATIFYDIEAYMSVTSSLPSIQSLVLRLIHLGSIEHAIKCFQSSYNASFLVNIVGVVATLSSSSEENSEASNLSTLFEKSGNFEEILGSESHSSITEKTRDIAKNVATWLKNGENFSSWPLPPLMDLASLSVAEPRDSQPSVSQVNDTFVKSSDSTFPSSQSMQSPSKLHSLTSNATDLLSSSSLKKNFFSQQEADEVELSNNYDLQGAAVQYLQRRLRMVEDELHEAINSKNVQQSRSEELEQQISKLTDNLQEYRNTVRELKLDLEKSKKKNEDLSKLEVEKVEEIANLKKELTHLAKQQEFGFKYVQEFSNEDLQGKLIEANEKNYKLTQLLKTQKEDADFITNQYQNASTFAAEQSKEVAKLQAECKRLQAINSKVMEEVKVYNDSRVEALLAKVSSLEETLKILEQKSLPKFTPHNQSPRIIDSN
On to B1, for which the binding entry was “binds”.
